Test results as given in US20120010289A1, “METHOD FOR PLACENTAL EXFOLIATION USING OXO-ARACHIDONIC ACID OR THE LIKE” (Inc Admin Agcy Natl Agric & Food Res. Organization, priority 2007, published 2012).
At least one structure is not confirmed: it was looked up by name or label, or the drawing left a doubt.

Test system: cultured fibroblasts derived from the placenta (MMP-producing cells)
Experiment: Cell exfoliation assay to search for MMP activators
Format: cell-based
Conditions: fibroblasts from bovine fetal placenta, monolayer treated with cortisol, compound added; FIG. 2 and FIG. 3
Experimental: The in vitro pharmacological evaluation is exemplified by a method using cultured fibroblasts derived from the placenta (MMP-producing cells). First, the composition for placental exfoliation of the present invention is added to a culture medium of the concerned cultured fibroblasts. After the addition, the cells are cultured for a fixed period of time.
Therefore, cultured fibroblasts derived from the placenta (MMP-producing cells) were used to search for MMP activators.
Since in vivo MMP-2 is produced from fibroblasts, fibroblasts were prepared from bovine fetal placenta. A fixed amount of cells were seeded on the culture plate, and were treated with cortisol after the monolayer formation. Further, the MMP activator candidate compounds were added thereto.

Compound | cell exfoliation activity (MMP activation ability)
CC/C=C\C/C=C\C/C=C\C/C=C\C/C=C\CCCC(=O)O [eicosapentaenoic acid] | medium activity
CC/C=C\C/C=C\C/C=C\C/C=C\C/C=C\C/C=C\CCC(=O)O [docosahexaenoic acid] | medium activity
